Hit rate of the full screen: of about 31,000 sequences, about 1,400 (4.5%) were called active.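 The calls were made as follows: active = median seed-adjusted z-score above 1 or below -1; inactive = the rest.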 Some of the results follow.
Test: Novel Modifiers of Survival Motor Neuron (SMN) Protein: Gene Identification via Genome-wide siRNA Screen;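 also: luminescence tracks full-length SMN protein made from the SMN2 reporter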
Details: HEK293T SMN2-luciferase reporter, siRNA knockdown, 72 h; actives lie on both sides
In short: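 Genome-wide siRNA screen (10418 genes, 3 siRNAs each, 1 pmol per well) by reverse transfection in HEK293T cells stably carrying an SMN2-luciferase reporter; luminescence after 72 hours, normalized to negative-control siRNA, log10-transformed, MAD-scored.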
For CCAUAUUGGUAUCUCAAUUTT against PSMA1, the median seed-adjusted z-score was inactive: -0.145. In the case of GAACGAGCAUUGAAUACAATT against DCC, the median seed-adjusted z-score is reported as inactive: 0.303. For GGUUGUGCCUGGAUCUAAATT against TTK, the median seed-adjusted z-score was inactive: -0.658. With GCAGCAAACCAGAUCCAGATT against ZBTB3 the median seed-adjusted z-score was inactive: -0.0419. For GUAUUCCUCAUACUAUAAATT against RNASE9, the median seed-adjusted z-score was inactive: 0.188. With CCAGUGCUGUCAGUACGAUTT against LY6G5B the median seed-adjusted z-score was active: -1.29. With ACAACAUCAUUCAAGUGAATT against PRKAB1 the median seed-adjusted z-score was inactive: 0.536. For CAGUGGUGUCUAUCGAAGATT against ENO1, the median seed-adjusted z-score was inactive: 0.0766. In the case of CUUCAGUGCUGAUCAGGUATT against NDUFA2, the median seed-adjusted z-score is reported as inactive: -0.694. With CCUAAUCAGUUUACCAUUUTT against TGIF2 the median seed-adjusted z-score was inactive: -0.304. For GCAGCUGUAUCACUCCUUATT against TRIM27, the median seed-adjusted z-score was inactive: -0.378. With GCACCGUCAUUGUCAAGAATT against CLCNKB the median seed-adjusted z-score was inactive: 0.428. For GAGUGGAACUAAUUGAAAATT against TRIM61, the median seed-adjusted z-score was inactive: 0.0116. With GGCUUUUCAUGUCGGAAGATT against TNFRSF10D the median seed-adjusted z-score was inactive: 0.0234. With GUUCCAUCUGUAGUCCUAATT against TARBP2 the median seed-adjusted z-score was inactive: 0.068. With CAAGGAUUGUGGAGUUAAATT against BDKRB1 the median seed-adjusted z-score was inactive: 0.448. For GAAGGAAUUUGACUCAAUATT against NAPB, the median seed-adjusted z-score was inactive: 0.716. With CUACAAGACCGAGAAGUAUTT against P2RX5 the median seed-adjusted z-score was inactive: 0.313. In the case of GCUCGUCUCCUAUCGAAAATT against DNMT3B, the median seed-adjusted z-score is reported as inactive: 0.0761. In the case of GGAAAUGGGUUGUCCAUAUTT against CYSLTR2, the median seed-adjusted z-score is reported as inactive: 0.0461. With CCCUUCUUUUGUACUAUUUTT against ZNF202 the median seed-adjusted z-score was inactive: 0.534. For ACGCAUUCAUCGACAGGAATT against ATG4B, the median seed-adjusted z-score was inactive: -0.703. With GCCUUUCGAGAGACCAUUATT against GFM1 the median seed-adjusted z-score was inactive: -0.0641. With CGGUUGAAAUCGAACUGGATT against RAB41 the median seed-adjusted z-score was inactive: -0.534. For GGUGCGAAAAGAUCUGCAATT against S100A9, the median seed-adjusted z-score was inactive: -0.0953. For GGUGAUUGGAUAUAAGAAATT against SLC12A1, the median seed-adjusted z-score was inactive: -0.406. With GAGAAGAGCUUGGUCUAGATT against CYP4V2 the median seed-adjusted z-score was inactive: 0. With GAAAGACCUAUGACGCAUATT against IL1R1 the median seed-adjusted z-score was inactive: 0.135. For GCACUAGCAAAGUCCGAGATT against MET, the median seed-adjusted z-score was inactive: 0.55. In the case of GGCGAAUACAGAUCACAAUTT against ARHGAP5, the median seed-adjusted z-score is reported as inactive: -0.359. With AAACGAAUAUGCAAACCAUTT against NAT11 the median seed-adjusted z-score was inactive: 0.37. For GAUACGUACUAUGACCGAATT against TGM7, the median seed-adjusted z-score was inactive: 0.244. With GGAUGCGUUGAAUAAGUUUTT against MGAT4A the median seed-adjusted z-score was inactive: 0.134. For CUCUGAUUAUCAUGAGAUATT against SRGAP2, the median seed-adjusted z-score was inactive: 0.0323. With GCGCUUUAGUGACUCAGAATT against STAT5A the median seed-adjusted z-score was inactive: -0.229. With GCGAGAUCCUGUUCAAUGATT against GGTLC2 the median seed-adjusted z-score was inactive: -0.288. In the case of GAAAUAGUAUGGAUUUUUATT against PRMT6, the median seed-adjusted z-score is reported as inactive: -0.412. For CUCUAUGAAUAUUGUAUUATT against BUD31, the median seed-adjusted z-score was inactive: 0.0554. In the case of GGAGGACUUCAUUCGAAAATT against PCLO, the median seed-adjusted z-score is reported as inactive: -0.734. With CCUGCCCUGUGAGUCUUUATT against FOXG1 the median seed-adjusted z-score was inactive: 0.749. In the case of GCACUUCAGCCAAAGAUUCTT against WWP2, the median seed-adjusted z-score is reported as inactive: -0.685. In the case of GGAAUUAUGCAUUGAAGUATT against ALDH18A1, the median seed-adjusted z-score is reported as inactive: 0.116. For GGGUCCAAUUUACUACAGATT against RAB21, the median seed-adjusted z-score was inactive: 0.544. In the case of CGGGCGGGUUUAACUCCAATT against PUS1, the median seed-adjusted z-score is reported as inactive: -0.308. In the case of CCUACAAGCUCCUAACAAATT against C1GALT1C1, the median seed-adjusted z-score is reported as inactive: 0. For GCAUCCUCAUCAACCGCAATT against SAPS1, the median seed-adjusted z-score was active: 1.16. In the case of CAGCUAGACUGGAUAGUAATT against ORC2L, the median seed-adjusted z-score is reported as inactive: -0.101. For AGGAGAUCGUCGUCACUGATT against NNMT, the median seed-adjusted z-score was inactive: -0.095. In the case of UACCUGAAGUUAAGCCUAATT against CA9, the median seed-adjusted z-score is reported as inactive: 0.0833. For GCACUAAUCUGCAAACUGUTT against SPTB, the median seed-adjusted z-score was inactive: 0.153. With GGAAAGGAGUUGUACGAAATT against NCBP1 the median seed-adjusted z-score was inactive: 0.785. For GGUGCACCAAUGUACAUGATT against ITGA2, the median seed-adjusted z-score was inactive: 0.106. In the case of GCUCAGUGUGCGAAAUUUATT against MED31, the median seed-adjusted z-score is reported as inactive: -0.267. In the case of CGCUGAUAGAGAUCGCAGATT against ZNFX1, the median seed-adjusted z-score is reported as inactive: -0.368. For GGACGGUCACGUUUACCUATT against GPR12, the median seed-adjusted z-score was inactive: 0.437. With CGGCUAGAAGAGCAACAAATT against MAP4K4 the median seed-adjusted z-score was inactive: 0.474. With CCUUCGAAAUUACCAGUAUTT against ZFYVE16 the median seed-adjusted z-score was inactive: 0.314. In the case of GGCACUAUUCUGCUAAGAATT against RAPGEF5, the median seed-adjusted z-score is reported as inactive: 0.529. For GACUGUCAGGAAACGAGUATT against PDE8B, the median seed-adjusted z-score was inactive: 0.217. In the case of CCACGAAGAAUGGAUUGAATT against TRIO, the median seed-adjusted z-score is reported as inactive: 0.42. In the case of CUCUAUUACCUGCUCCAUATT against ZNF311, the median seed-adjusted z-score is reported as inactive: 0.196. With CGUCAAUUCAGAUAUUGAATT against BPIL2 the median seed-adjusted z-score was inactive: -0.63. With GACUCCCUAUCGUACCGAUTT against LPHN2 the median seed-adjusted z-score was inactive: -0.817. In the case of GGAGCGAGGCAACAACAUUTT against RAD54L2, the median seed-adjusted z-score is reported as inactive: -0.0646. In the case of GCAUAAUUCGGCAAAGGUUTT against ST8SIA1, the median seed-adjusted z-score is reported as inactive: -0.25. In the case of CCUCAAGCCUGUAGAAGAATT against SMNDC1, the median seed-adjusted z-score is reported as active: -1.54. With GGACCAUAGUCAGAGUGGATT against IFNB1 the median seed-adjusted z-score was inactive: 0. With CCUCUGACAAGUUACCUCATT against LEFTY1 the median seed-adjusted z-score was inactive: 0.383. In the case of CGGCUAUAGAAACACUUAUTT against DDX53, the median seed-adjusted z-score is reported as inactive: -0.136. With UGAGCAGUGAGAACCCAUATT against PEAR1 the median seed-adjusted z-score was inactive: 0.071. For CAACCAUGUUCAGUAUAGATT against SPINK9, the median seed-adjusted z-score was inactive: 0.392. With UCUCCAUGGUGGUACAGGATT against PRDX5 the median seed-adjusted z-score was inactive: -0.0386. With AGACCUCAGUCACCUAUUATT against CYB5B the median seed-adjusted z-score was inactive: 0. For CAUGGGAUUUUGUAAGAGATT against ERAP2, the median seed-adjusted z-score was inactive: 0.081. In the case of CACCUUUACUAACAAAGGATT against ACIN1, the median seed-adjusted z-score is reported as inactive: -0.674. In the case of GAUGCAAGAUGGGUUUAUUTT against EBPL, the median seed-adjusted z-score is reported as inactive: -0.113. For CAUCAGCUUCCGCAACUUUTT against LRP3, the median seed-adjusted z-score was active: -1.05. In the case of GAGUCAAAGAGGGUGGUAATT against DNAJB7, the median seed-adjusted z-score is reported as inactive: 0.684. In the case of GCUAUAACUUUGAUCAAUATT against ZNF267, the median seed-adjusted z-score is reported as inactive: 0.381. For GAAGUACCAGUACCGUUAATT against SI, the median seed-adjusted z-score was inactive: 0. In the case of ACCAGUACCUGGUGACGCATT against B3GALT6, the median seed-adjusted z-score is reported as inactive: 0.169. With AGAUCAAGGCGGUCAUCAUTT against ACTL7B the median seed-adjusted z-score was inactive: 0.572. With GGACAAACACGGACAGUAUTT against EPHB4 the median seed-adjusted z-score was inactive: -0.143. With CACUUUCCUGGGUAUUGUATT against ALDH3A2 the median seed-adjusted z-score was inactive: -0.0751. In the case of ACAUCGUUGUGGUCAAGGUTT against ADAMTS15, the median seed-adjusted z-score is reported as inactive: 0.765. In the case of GGAGAUCUUUGAGUACCUATT against BRPF1, the median seed-adjusted z-score is reported as inactive: 0. For GGGCAUUUUCUGUAUCAGATT against SGMS2, the median seed-adjusted z-score was inactive: -0.492. In the case of CACUAGAAAUAACAAUGGATT against TMPRSS11D, the median seed-adjusted z-score is reported as inactive: -0.0643. In the case of GACUCCAAAUUUUCGAAUUTT against GPD1L, the median seed-adjusted z-score is reported as inactive: 0.11. In the case of CAGGCACUUUGUUUAUACATT against SERPINB8, the median seed-adjusted z-score is reported as inactive: 0.371. For CAACCAGAAUUACUGCUAUTT against PCDH10, the median seed-adjusted z-score was inactive: -0.488. With GCGAUAUUAUCAUACUGGATT against ZNF470 the median seed-adjusted z-score was active: -1.26. In the case of CAAUGACCAUUGCUAAGAATT against HSPD1, the median seed-adjusted z-score is reported as inactive: -0.146. In the case of GUUUGAUGGUGAUAAGAAATT against PGD, the median seed-adjusted z-score is reported as active: -1.55. With GACAGACUGCUAUAACAAUTT against TTC9C the median seed-adjusted z-score was inactive: -0.571. With GGACCACGAUGAUCAUUGATT against CRMP1 the median seed-adjusted z-score was inactive: -0.354. In the case of GGACUGCUUCAUAUACUGATT against GLT8D1, the median seed-adjusted z-score is reported as active: 1.22. For CUCUGGAUUUUGAUAGUUUTT against PPARGC1A, the median seed-adjusted z-score was inactive: -0.0953. With CCCUUGUAGGUAGCUCCUATT against SLC37A4 the median seed-adjusted z-score was inactive: -0.00202. For GGAAGGUGAUUGAUCCUAATT against HNRNPD, the median seed-adjusted z-score was inactive: 0.504. For CCUUCAAAUAUUCUAGUAATT against ZNF670, the median seed-adjusted z-score was inactive: 0. With CGAGCAGUUUGGAGACGAATT against DNAJC5B the median seed-adjusted z-score was inactive: 0. With CCACGUUUCUCCAGUCAAATT against CDH17 the median seed-adjusted z-score was inactive: -0.167. For AGAUAUUACAGUCAACUUUTT against UCRC, the median seed-adjusted z-score was inactive: -0.93. With GGCGGACCAUCUUCUGGAUTT against FOXP3 the median seed-adjusted z-score was inactive: -0.421. With GGCCUAUCAUCGAAAACCATT against SYT10 the median seed-adjusted z-score was inactive: 0. In the case of GUGUAAAGCUUGUUCGAAUTT against CTNNA1, the median seed-adjusted z-score is reported as inactive: -0.0588.

Reference: PubChem BioAssay AID1347426 (Functional Genomics Laboratory (NCATS/FGL), 2020)
